In US8865656B2 (Polyphor AG, priority 2009, dated 2014):
Starred links: 1 amine or outer side, 2 acyl side, 3 side chain; linkers in the order of their positions; H or OH if unused. Positions of bridges follow the written chain, without caps; N, C: chain ends. Non-standard residues stand in square brackets, D forms with d. No end group written: not given here. Oic = O=C(O)[C@@H]1C[C@@H]2CCCC[C@@H]2N1; X1 = O=C(C(O)CCN[*:1])[*:2]; Dab = NCC[C@H](N)C(=O)O

test: general procedure: Fmoc solid-phase peptide synthesis; Fmoc-ProO-chlorotrityl resin, Fmoc-OicO-chlorotrityl resin, Fmoc-AlaO-chlorotrityl resin; conditions: whole synthesis

“YHACSA[dP][Dab]RYCYQK[dP][Oic] (cysteine pairing not given here)” and “γ^4Y-His-Ala-Cys-Ser-Ala-^DPro-Dab-Arg-Tyr-Cys-Tyr-Gln-Lys-^DPro-Pro” are the same in “final purity (method not given)” value: 95% for the first, 95% for the second.

“cyclo(YHAC[X1]A[dP][Dab]RYCYQK[dP]P) (disulfide 4-11; SMILES C[C@@H]1NC(=O)[C@H](Cc2c[nH]cn2)NC(=O)[C@H](Cc2ccc(O)cc2)NC(=O)[C@@H]2CCCN2C(=O)[C@H]2CCCN2C(=O)[C@H](CCCCN)NC(=O)[C@H](CCC(N)=O)NC(=O)[C@H](Cc2ccc(O)cc2)NC(=O)[C@@H]2CSSC[C@H](NC1=O)C(=O)NCCC(O)C(=O)N[C@@H](C)C(=O)N1CCC[C@@H]1C(=O)N[C@@H](CCN)C(=O)N[C@@H](CCCNC(=N)N)C(=O)N[C@@H](Cc1ccc(O)cc1)C(=O)N2)” and “Tyr-His-Ala-Cys-Ser-Ala-^DPro-Dab-Arg-Tyr-Cys-Tyr-Gln-Lys-(ABu)G-Pro” are the same in “final purity (method not given)” value: 95% for the first, 95% for the second.

“Tyr-His-Ala-Cys-Ser-Ala-^DPro-Dab-Arg-Tyr-Cys-Tyr-Gln-Lys-^DCha-Pro” and “Tyr-His-Ala-Cys-Ser-Ala-^DTyr-Dab-Arg-Tyr-Cys-Tyr-Gln-Lys-NMe^DAla-Pro” are the same in “final purity (method not given)” value: 95% for the first, 95% for the second.

“Tyr-His-Ala-Cys-β^3S-Ala-^DPro-Dab-Arg-Tyr-Cys-Tyr-Gln-Lys-^DPro-Pro” and “Tyr-His-Ala-Cys-Ser-Ala-^DPro-Dab-Arg-Tyr-Cys-Tyr-Gln-Lys-^DHis(Bzl)-Pro” are the same in “final purity (method not given)” value: 95% for the first, 95% for the second.

“Tyr-His-Ala-Cys-Ser-Ala-^DPro-Dab-Arg-Tyr-Cys-Tyr-Gln-Lys-^D4Pal-Pro” and “Tyr-His-Ala-Cys-^DalloT-Ala-^DPro-Dab-Arg-Tyr-Cys-Tyr-Gln-Lys-^DPro-Pro” are the same in “final purity (method not given)” value: 95% for the first, 95% for the second.

“Tyr-His-Ala-Cys-Ser-Ala-^DPro-Dab-Arg-Tyr-Cys-Tyr-Gln-Lys-NMe^DTyr-Pro” and “Tyr-His-Ala-Cys-Ser-Ala-^DPro-Dab-Arg-Tyr-Cys-Tyr-Gln-Lys-NMe^DIle-Pro” are the same in “final purity (method not given)” value: 95% for the first, 95% for the second.

Compared with “Tyr-His-Ala-Cys-Ser-Ala-^DPro-Dab-Arg-Tyr-Cys-Tyr-Gln-Lys-NMe^DLys-Pro”, “Tyr-His-Ala-Cys-Ser-Ala-^DTrp-Dab-Arg-Tyr-Cys-Tyr-Gln-Lys-^DIle-Pro” is higher in “final purity (method not given)” value: 88% for the first, 95% for the second.
